# According to EP0273272B1, “Pharmaceutical compositions containing 17-benzyl sparteine derivatives with a positive inotropic effect” (Kali-Chemie Pharma GmbH, priority 1986, dated 1988):
# The name of at least one read-out is uncertain.
# Test system: narkotisierten Ratten
# Assay: Blood pressure, heart rate and dP/dtmax during continuous i.v. infusion in anaesthetised rats
# Assay type: in vivo, Wistar-Ratten
# Details: at the maximally effective dose i.v.; % change from baseline minus % change in the control group
row,SMILES,Netto % Anstieg dP/dtmax [%]
1,"Oc1cccc(CC2C3CC(CN4CCCCC34)C3CCCCN32)c1 (stereo not drawn) [Beispiel 7, 17-(3-Hydroxybenzyl)-spartein]",30
2,COc1cc(CC2C3CC(CN4CCCCC34)C3CCCCN32)cc(OC)c1OC (stereo not drawn) [Beispiel 504],30
3,Fc1cccc(CC2C3CC(CN4CCCCC34)C3CCCCN32)c1 (stereo not drawn) [Beispiel 510],56
